The values that follow come from PMC11039996.

By UniProt entry, the sequences of proteins in these tests, tags left out. Where a name states a change or a piece, a line headed by the entry shows the natural chain unless it says otherwise.
UniProt Q99708: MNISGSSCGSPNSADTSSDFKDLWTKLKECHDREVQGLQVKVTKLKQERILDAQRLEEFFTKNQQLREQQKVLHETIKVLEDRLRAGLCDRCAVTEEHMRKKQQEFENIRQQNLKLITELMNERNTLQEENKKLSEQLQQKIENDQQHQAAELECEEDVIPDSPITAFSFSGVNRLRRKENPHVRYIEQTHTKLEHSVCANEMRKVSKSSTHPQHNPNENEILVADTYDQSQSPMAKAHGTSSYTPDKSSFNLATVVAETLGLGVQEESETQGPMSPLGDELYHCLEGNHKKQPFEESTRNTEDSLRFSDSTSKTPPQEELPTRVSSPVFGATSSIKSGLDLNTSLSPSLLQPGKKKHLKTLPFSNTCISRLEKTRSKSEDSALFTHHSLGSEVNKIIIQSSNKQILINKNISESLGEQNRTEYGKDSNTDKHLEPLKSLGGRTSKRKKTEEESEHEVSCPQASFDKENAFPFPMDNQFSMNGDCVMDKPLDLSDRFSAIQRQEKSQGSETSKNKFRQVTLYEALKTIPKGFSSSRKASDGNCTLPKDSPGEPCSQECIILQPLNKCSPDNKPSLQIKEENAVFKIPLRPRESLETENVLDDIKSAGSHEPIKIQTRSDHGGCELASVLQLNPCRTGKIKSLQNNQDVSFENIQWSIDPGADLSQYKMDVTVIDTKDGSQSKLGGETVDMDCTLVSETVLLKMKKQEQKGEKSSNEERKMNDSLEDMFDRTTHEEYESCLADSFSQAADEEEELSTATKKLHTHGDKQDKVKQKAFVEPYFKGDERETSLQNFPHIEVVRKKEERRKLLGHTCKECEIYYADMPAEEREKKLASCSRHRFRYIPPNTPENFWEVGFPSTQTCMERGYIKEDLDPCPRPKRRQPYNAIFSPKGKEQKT
UniProt P09874: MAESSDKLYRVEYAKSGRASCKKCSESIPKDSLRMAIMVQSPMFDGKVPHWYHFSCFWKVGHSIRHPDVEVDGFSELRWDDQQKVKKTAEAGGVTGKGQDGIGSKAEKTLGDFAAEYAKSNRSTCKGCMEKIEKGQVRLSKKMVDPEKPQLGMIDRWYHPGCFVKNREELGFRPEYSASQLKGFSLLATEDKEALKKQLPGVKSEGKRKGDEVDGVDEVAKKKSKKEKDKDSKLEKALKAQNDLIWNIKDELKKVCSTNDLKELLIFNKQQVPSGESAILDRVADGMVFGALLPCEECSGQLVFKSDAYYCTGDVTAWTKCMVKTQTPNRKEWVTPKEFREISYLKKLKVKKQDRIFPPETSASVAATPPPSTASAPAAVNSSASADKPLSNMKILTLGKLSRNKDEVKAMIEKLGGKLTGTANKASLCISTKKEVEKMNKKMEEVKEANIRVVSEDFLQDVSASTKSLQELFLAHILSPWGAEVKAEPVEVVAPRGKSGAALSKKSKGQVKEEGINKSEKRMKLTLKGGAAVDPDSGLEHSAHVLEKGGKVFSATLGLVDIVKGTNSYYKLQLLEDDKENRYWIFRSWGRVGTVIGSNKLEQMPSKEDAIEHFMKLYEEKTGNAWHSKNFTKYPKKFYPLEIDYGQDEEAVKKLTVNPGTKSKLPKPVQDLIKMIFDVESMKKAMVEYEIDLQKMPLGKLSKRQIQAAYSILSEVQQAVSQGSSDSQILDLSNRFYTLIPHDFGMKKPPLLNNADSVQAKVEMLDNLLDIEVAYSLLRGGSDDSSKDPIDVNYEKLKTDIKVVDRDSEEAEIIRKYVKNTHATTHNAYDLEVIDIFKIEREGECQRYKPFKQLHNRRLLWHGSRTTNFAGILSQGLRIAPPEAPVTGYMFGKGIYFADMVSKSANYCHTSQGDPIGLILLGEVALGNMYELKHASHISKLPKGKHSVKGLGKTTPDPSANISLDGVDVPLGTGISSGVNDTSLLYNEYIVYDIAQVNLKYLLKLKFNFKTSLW
UniProt Q96DE0: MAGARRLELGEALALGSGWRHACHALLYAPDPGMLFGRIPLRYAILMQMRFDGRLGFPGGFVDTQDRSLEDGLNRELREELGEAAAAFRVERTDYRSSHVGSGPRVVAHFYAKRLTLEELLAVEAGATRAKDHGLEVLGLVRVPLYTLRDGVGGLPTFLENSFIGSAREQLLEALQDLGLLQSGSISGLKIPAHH

For assay [1], the target named is SFB-tagged CtIP (CtBP-interacting protein), wild type (UniProt Q99708). As to the kind of experiment: co-IP; HEK293T transfected with SFB-CtIP and Myc-NUDT16; streptavidin beads; NTEN buffer (20 mM Tris-HCl pH 8.0, 100 mM NaCl, 1 mM EDTA, 0.5% Nonidet P-40), 3 h at 4°C; western blot. (In western blotting, separated proteins are transferred to a membrane and probed.)

Assay [2] concerns the target PARP1 wild type as used in the Co-IP with NUDT16 (Supplemental Figure S7I) (UniProt P09874). As to the kind of experiment: co-IP; Co-IP of PARP1 constructs with NUDT16 (Supplemental Figure S7G, S7I); tags, cells and bait not given.
The target of assay [3] is PARP1 as used in the pulldown with NUDT16 deletion mutants (Supplemental Figure S7K) (UniProt P09874). As to the kind of experiment: pull-down; pulldown of NUDT16 deletion mutants and PARP1 (Supplemental Figure S7K); which partner was immobilised is not given.
The target of assay [4] is PARP1, endogenous (human (endogenous in MCF10A, U2OS and HEK293T)) (UniProt P09874). As to the kind of experiment: co-IP; endogenous proteins, MCF10A lysate; IP with NUDT16 antibody or PARP1 antibody; cells untreated or IR 20 Gy, 1 h (interaction reduced); extracts with Benzonase nuclease (not affected).
Assay [5] has the same target. As to the kind of experiment: proximity ligation; in situ PLA (Duolink) in fixed U2OS cells with NUDT16 and PARP1 antibodies; untreated or IR 10 Gy (reduced at 1 and 4 h, similar to untreated at 8 and 24 h).
For assay [6], the target named is CtIP, endogenous (human (endogenous in HEK293T and U2OS)) (UniProt Q99708). As to the kind of experiment: proximity ligation; in situ PLA (Duolink) in fixed U2OS cells with NUDT16 and CtIP antibodies; endogenous proteins.
Assay [7] has the same target. As to the kind of experiment: co-IP; endogenous proteins, HEK293T lysate; IP with NUDT16 antibody or CtIP antibody, blot for the other.
Assay [8] has as its target NUDT16, endogenous (human (endogenous in HEK293T, MCF10A and U2OS)) (UniProt Q96DE0). As to the kind of experiment: co-IP; endogenous proteins, MCF10A lysate; IP with NUDT16 antibody or PARP1 antibody; cells untreated or IR 20 Gy, 1 h (interaction reduced); extracts with Benzonase nuclease (not affected).
Assay [9] addresses MBP-PARP1 fusion protein (UniProt P09874). As to the kind of experiment: pull-down; MBP-PARP1 fusion protein on beads (amylose resin), incubated with lysates of HEK293T cells expressing SFB-NUDT16 (WT or DDEEE5A); cells untreated, IR 20 Gy, or PARPi (20 μM olaparib, 3 h) before IR; only the target purified.
Assay [10] concerns the target CtIP, endogenous (human (endogenous in HEK293T and U2OS)) (UniProt Q99708). As to the kind of experiment: proximity ligation; in situ PLA in U2OS cells transfected with WT or mutant NUDT16, or with a CtIP RSS3A mutant (Supplemental Figure S4H-K).

These are yes or no findings as the source states them, for the method shown. Binding seen in cells or lysates may run through a third protein. Some entries that bind do so weakly or less than the wild type.

On to “Myc-tagged NUDT16 (from UniProt Q96DE0 1-195)”, for which the binding result in assay [1] is “binds”.
In the case of “NUDT16 as used in the Co-IP with PARP1 constructs (Supplemental Figure S7G, S7I) (from UniProt Q96DE0 1-195)”, the binding entry in [2] was “binds”.
For the substance “NUDT16 wild type as used in the pulldown with PARP1 (Supplemental Figure S7K) (from UniProt Q96DE0 1-195)”, in assay [3], the binding result is given as “binds”.
“NUDT16, endogenous (from UniProt Q96DE0 1-195)”: the binding entry in assay [4], in assay [5], in [6] and in assay [7] was “binds” in each case.
“PARP1, endogenous (from UniProt P09874 1-1014)”: the binding entry in [8] is “binds”.
Turning to “SFB-tagged NUDT16, wild type (from UniProt Q96DE0 1-195)”, the binding result in assay [9] is reported as “binds”.
With “WT NUDT16 transfected into U2OS cells for the PLA (from UniProt Q96DE0 1-195)”, the binding entry in [10] is listed as “binds”.
